In article doi:10.1101/2025.08.09.669489:
These are yes or no findings as the source states them, for the method shown. Binding seen in cells or lysates may run through a third protein. Some results given as binding are weak or reduced against the parent protein; the word gives no strength.

Chains of the proteins cited; added tags and fusions are not shown.
UniProt Q9HC77: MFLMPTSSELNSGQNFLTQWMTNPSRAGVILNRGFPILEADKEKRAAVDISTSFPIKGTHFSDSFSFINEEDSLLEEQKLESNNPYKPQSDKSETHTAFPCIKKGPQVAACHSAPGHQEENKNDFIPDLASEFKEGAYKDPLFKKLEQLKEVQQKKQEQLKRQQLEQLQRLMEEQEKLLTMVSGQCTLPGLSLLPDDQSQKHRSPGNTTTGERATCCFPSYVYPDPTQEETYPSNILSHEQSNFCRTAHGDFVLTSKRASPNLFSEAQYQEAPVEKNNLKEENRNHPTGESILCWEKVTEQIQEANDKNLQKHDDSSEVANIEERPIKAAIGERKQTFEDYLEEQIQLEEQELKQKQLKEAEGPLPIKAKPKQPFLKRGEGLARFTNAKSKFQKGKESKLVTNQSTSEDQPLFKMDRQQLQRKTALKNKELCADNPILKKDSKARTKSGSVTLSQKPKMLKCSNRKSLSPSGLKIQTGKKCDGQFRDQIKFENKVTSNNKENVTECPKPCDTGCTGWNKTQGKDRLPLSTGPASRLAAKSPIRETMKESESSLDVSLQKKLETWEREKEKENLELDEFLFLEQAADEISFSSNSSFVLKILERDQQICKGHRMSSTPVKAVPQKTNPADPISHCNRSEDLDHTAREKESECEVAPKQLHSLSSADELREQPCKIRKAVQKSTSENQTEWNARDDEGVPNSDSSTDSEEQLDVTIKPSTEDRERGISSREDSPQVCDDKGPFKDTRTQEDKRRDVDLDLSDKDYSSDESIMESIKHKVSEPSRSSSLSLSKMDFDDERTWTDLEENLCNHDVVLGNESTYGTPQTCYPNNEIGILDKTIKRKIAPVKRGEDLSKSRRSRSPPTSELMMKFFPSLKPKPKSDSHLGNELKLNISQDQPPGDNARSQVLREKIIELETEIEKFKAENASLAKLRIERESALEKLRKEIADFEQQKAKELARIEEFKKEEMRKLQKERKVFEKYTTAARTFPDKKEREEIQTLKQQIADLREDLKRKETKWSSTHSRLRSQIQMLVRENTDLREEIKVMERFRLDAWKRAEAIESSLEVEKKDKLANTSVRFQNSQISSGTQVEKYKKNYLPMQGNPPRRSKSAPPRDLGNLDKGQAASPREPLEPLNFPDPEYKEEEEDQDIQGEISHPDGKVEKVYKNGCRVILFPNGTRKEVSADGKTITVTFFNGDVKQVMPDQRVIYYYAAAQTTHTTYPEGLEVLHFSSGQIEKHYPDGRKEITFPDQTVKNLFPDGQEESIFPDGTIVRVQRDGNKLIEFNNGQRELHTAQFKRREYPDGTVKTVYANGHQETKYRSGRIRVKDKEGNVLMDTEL
UniProt Q99816: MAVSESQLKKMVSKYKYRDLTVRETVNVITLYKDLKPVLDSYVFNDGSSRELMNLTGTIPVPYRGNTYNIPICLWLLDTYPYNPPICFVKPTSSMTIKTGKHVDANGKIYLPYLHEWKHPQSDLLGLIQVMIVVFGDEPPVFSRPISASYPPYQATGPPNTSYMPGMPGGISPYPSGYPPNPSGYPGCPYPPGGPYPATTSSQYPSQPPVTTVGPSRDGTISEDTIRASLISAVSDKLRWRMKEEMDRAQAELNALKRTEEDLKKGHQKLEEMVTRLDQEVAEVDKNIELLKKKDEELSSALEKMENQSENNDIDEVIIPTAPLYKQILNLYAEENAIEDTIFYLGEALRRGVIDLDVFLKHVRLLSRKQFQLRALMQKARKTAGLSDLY

Target: GFP-CPAP (doxycycline-inducible) (UniProt Q9HC77)
Experiment: co-IP

binding: binds
Substance: TSG101 (ESCRT-I protein), endogenous (from UniProt Q99816 1-390)
